Laboratory results taken from publication PMC6001661.
No constants are given. Whether binding was seen depends on the method and setting. Binding can be weak; no strength is given. Where a sequence is shown, tags or fusion partners need not be part of it. For part of these data: In cells and extracts the contact can be indirect.

Tests used:
[1] = biological target: T1, HA-OsTrx1 (rice (Oryza sativa)) (UniProt Q6K431); test: co-IP; rice protoplasts co-transformed; lysed in PEN-140 buffer, precipitated with anti-HA and Protein G beads, five washes with PEN-400 (400 mM NaCl); immunoblot with anti-FLAG and anti-HA
T1 sequence: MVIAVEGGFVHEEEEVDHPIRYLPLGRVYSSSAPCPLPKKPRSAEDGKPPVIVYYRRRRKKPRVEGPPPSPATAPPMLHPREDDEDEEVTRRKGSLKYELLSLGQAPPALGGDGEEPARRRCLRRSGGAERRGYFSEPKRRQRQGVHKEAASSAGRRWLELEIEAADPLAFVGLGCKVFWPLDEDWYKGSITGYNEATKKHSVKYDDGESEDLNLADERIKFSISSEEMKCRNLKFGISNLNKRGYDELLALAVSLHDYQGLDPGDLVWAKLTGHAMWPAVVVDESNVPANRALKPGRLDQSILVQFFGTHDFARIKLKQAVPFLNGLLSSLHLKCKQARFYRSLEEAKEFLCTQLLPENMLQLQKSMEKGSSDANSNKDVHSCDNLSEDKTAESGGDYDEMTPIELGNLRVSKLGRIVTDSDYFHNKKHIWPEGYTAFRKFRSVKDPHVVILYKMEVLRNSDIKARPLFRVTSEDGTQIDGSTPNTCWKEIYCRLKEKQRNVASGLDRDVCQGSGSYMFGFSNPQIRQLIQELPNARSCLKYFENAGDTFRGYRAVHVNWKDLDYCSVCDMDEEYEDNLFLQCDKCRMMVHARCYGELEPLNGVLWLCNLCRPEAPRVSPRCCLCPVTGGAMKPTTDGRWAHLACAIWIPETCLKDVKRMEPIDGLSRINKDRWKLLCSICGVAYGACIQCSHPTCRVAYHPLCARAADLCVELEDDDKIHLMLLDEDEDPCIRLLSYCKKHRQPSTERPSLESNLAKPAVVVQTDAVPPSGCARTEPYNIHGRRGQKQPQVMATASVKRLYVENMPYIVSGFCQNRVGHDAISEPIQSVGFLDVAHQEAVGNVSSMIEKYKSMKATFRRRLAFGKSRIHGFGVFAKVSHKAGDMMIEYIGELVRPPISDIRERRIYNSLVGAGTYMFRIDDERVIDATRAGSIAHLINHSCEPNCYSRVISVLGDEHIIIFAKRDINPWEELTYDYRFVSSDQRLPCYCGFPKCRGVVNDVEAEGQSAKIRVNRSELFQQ

[2] = biological target: T2, OsTrx1-YFP^N (OsTrx1 fused with the N-terminal half of yellow fluorescent protein) (rice (Oryza sativa)) (UniProt Q6K431); test: split reporter; BiFC in rice protoplasts co-transformed with pUC-SPYNE (YFP 1-155) and pUC-SPYCE (YFP 156-239) fusions; confocal microscopy
T2 sequence: T1 sequence

[3] = biological target: T3, OsTrx1 fused with a binding domain (BD), from pGBKT7-OsTrx1 (rice (Oryza sativa)) (UniProt Q6K431); test: two-hybrid; directed test: pGBKT7-OsTrx1, pGBKT7-OsTrx1N or pGBKT7-OsTrx1C co-transformed with pGADT7-SIP1 in AH109; growth on synthetic defined medium lacking Trp, Leu, His and adenine
T3 sequence: T1 sequence

Substance: FLAG-SIP1 (rice (Oryza sativa))
- binding [1]: binds

Substance: full-length SIP1-YFP^C (SIP1 fused with the C-terminal half of YFP) (rice (Oryza sativa))
- binding [2]: binds

Substance: full-length SIP1 fused with AD, from pGADT7-SIP1 (rice (Oryza sativa))
- binding [3]: binds
